In publication PMC6650543 one finds binding data, which are given here for 1 substance.

By UniProt entry, the sequences of proteins in these tests, tags left out.
UniProt O88275: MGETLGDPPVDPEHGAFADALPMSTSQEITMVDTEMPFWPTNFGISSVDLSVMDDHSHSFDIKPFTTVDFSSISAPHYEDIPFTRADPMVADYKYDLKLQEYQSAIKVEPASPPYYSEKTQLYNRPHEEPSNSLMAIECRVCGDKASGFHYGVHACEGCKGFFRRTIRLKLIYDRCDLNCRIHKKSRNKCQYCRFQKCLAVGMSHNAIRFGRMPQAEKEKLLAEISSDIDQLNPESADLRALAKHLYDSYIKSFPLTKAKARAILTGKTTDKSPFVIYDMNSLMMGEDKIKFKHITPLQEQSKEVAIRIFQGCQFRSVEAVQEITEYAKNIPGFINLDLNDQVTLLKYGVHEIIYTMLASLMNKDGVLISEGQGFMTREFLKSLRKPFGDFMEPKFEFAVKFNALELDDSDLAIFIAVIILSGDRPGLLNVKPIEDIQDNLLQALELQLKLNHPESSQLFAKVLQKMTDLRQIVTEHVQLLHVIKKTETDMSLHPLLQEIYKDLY

This experiment has as its target peroxisome proliferator-activated receptor γ (rat (endogenous in primary hippocampal neurons)) (UniProt O88275). The experiment is described as follows: co-IP; lysate of primary rat hippocampal neurons in cold RIPA buffer, pre-cleared with protein A sepharose; anti-PPARγ or anti-CDK5 antibody (1:500) 12 h at 4°C, protein A sepharose beads 4 h, four washes with cold PBS, Western blot for CDK5 or PPARγ; neurons untreated or treated with Aβ1-42 (8 μM), pioglitazone (10 μM) + Aβ1-42, or GW9662 (10 μM) + pioglitazone + Aβ1-42. (In general: A western blot detects proteins with antibodies after separation by electrophoresis.)

Results are given in words; binding and its absence hold for the method and conditions named. Binding seen in cells or lysates may run through a third protein. Some results given as binding are weak or reduced against the parent protein; the word gives no strength.

Take “cyclin-dependent kinase 5 (from UniProt Q03114 1-292) (enzyme)”: the binding result was “binds”.
